Laboratory results reported in paper PMC7790825.
These are yes or no findings as the source states them, for the method shown. Binding seen in cells or lysates may run through a third protein. Some results given as binding are weak or reduced against the parent protein; the word gives no strength.

By UniProt entry, the sequences of proteins in these tests, tags left out.
UniProt P07355: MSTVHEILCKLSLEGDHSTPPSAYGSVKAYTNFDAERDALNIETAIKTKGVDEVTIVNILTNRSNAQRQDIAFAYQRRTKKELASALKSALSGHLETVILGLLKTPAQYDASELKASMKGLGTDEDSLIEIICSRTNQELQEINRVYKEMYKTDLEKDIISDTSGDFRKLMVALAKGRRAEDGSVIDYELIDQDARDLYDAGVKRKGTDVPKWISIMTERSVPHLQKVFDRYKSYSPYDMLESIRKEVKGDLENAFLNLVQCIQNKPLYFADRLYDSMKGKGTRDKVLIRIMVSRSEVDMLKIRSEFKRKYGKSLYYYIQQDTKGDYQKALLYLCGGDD
UniProt P19474: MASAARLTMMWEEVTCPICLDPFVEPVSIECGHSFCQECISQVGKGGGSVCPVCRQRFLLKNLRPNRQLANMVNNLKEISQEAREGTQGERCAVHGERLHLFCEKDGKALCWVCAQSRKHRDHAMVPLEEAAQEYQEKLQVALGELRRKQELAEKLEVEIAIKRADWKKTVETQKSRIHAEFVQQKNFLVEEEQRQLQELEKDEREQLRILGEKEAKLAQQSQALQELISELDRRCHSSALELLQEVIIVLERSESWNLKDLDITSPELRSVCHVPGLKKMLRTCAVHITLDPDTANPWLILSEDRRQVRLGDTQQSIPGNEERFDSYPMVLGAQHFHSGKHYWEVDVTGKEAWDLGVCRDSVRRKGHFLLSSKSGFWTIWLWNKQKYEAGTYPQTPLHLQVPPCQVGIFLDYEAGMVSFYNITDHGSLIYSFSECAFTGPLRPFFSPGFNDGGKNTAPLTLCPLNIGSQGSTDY
UniProt Q14457: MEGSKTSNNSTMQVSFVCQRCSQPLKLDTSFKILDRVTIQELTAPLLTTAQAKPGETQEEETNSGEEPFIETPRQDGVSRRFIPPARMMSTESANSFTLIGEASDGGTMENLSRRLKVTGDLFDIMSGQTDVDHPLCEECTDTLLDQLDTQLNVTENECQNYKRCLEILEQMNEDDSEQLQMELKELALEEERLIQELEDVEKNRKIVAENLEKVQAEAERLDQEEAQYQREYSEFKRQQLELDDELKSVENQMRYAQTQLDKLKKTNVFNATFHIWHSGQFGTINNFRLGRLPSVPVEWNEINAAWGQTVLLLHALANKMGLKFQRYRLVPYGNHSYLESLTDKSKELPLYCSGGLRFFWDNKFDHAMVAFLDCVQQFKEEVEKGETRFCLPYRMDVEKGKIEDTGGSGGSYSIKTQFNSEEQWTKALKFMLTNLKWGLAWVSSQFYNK

How the values were obtained:
[1] = target: Annexin A2 (human (endogenous in U2-OS)) (UniProt P07355); assay: co-IP; U2-OS cells stably expressing H125-V or H125-TRIM21, after TET (10 ug/ml); IP with IgG and ANXA2 antibodies, immunoblot
[2] = target: Annexin A2 (human (endogenous in U2-OS)) (UniProt P07355); assay: co-IP; untransfected U2-OS cells; IP of endogenous ANXA2 with ANXA2 antibody (1 mg total lysate protein, 2 ug antibody), immunoblot
[3] = target: HA-TRIM21 (tripartite motif containing-21) (UniProt P19474); assay: co-IP; U2-OS cells transfected with HA-vector or HA-TRIM21; IP with HA antibody (1 mg total lysate protein, 2 ug antibody), immunoblot of the immune complexes

| Substance | binding [3] | further results |
| --- | --- | --- |
| TRIM21 expressed from H125-TRIM21 (tetracycline-induced) (from UniProt P19474 1-475) |  | binding [1]: binds |
| endogenous TRIM21 (tripartite motif containing-21) (from UniProt P19474 1-475) |  | binding [2]: binds |
| Beclin 1 (from UniProt Q14457 1-450) | binds |  |
| Annexin A2 (from UniProt P07355 1-339) | binds |  |
